Data from patent US20220354890A1 (GUANGZHOU BIO GENE TECHNOLOGY, published 2022).

T1: CLL1-Fc fusion protein (Acrobiosystems) (UniProt Q5QGZ9 65-265)
T1 construct: Bought reagent; not shown: Fc part, detected with FITC-labeled anti-human Fc
T1 sequence (looked up): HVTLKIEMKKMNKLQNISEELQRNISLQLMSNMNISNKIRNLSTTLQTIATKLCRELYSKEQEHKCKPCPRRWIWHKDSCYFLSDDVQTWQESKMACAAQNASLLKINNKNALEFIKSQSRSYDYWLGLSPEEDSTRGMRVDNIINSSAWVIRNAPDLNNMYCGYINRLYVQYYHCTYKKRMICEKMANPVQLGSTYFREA


Target: T1, CLL1-Fc fusion protein (Acrobiosystems)
Assay: flow cytometry: CAR-T cells stained with CLL1-Fc fusion protein and FITC-labeled anti-human Fc; percent positive cells (T mock 1.23%)
Description: Flow cytometry was used to detect the expression or CAR molecules on the surface of T cells, and the CLL1-Fc fusion protein (Acrobiosystems) was used to detect the expression of CAR. The secondary antibody was FITC-Labeled anti-human Fc, and T cell (T mock) not transfected with CAR was used as a negative control.

Row | Binder | CAR Positive Rate [%]
1 | 27H4-CAR (other, also called 27H4-CAR-T (T cells carrying it); chimeric antigen receptor targeting CLL1 with Anti-CLL1 scFv (27H4)) DIVMSQSPSSLAVSVGEKVTMSCKSSQSLLYSDNQKNYLAWYQQKPGQSPKLLIYWASTRESGVPDRFTGSGSGTDFTLTISSVKAEDLAVYYCQQYYTYPYTFGGGTKLEIKGGGGSGGGGSGGGGSEVQLQQSGPELVKPGASVKISCKASGYSFTGYHMHWVKQSHVKSLEWIGRINPYNGAASHNQKFKDKATLTVDKSSSTAYMELHSLTSEDSAVYYCARGWDYDGGYYAMDYWGQGTSVTVSSTTTPAPRPPTPAPTIASQPLSLRPEACRPAAGGAVHTRGLDFACDIYIWAPLAGTCGVLLLSLVITLYCKRGRKKLLYIFKQPFMRPVQTTQEEDGCSCRFPEEEEGGCELRVKFSRSADAPAYQQGQNQLYNELNLGRREEYDVLDKRRGRDPEMGGKPRRKNPQEGLYNELQKDKMAEAYSEIGMKGERRRGKGHDGLYQGLSTATKDTYDALHMQALPPR | 39.4
2 | H27H4-CAR (other, also called humanized 27H4; H27H4-CAR-T (T cells carrying it)) DIQMTQSPSSLSASVGDRVTITCKSSQSLLYSDNQKNYLAWYQQKPGKAPKLLIYWASTRESGVPSRFSGSGSGTDFTLTISSLQPEDFATYYCQQYYTYPYTFGQGTKLEIKGGGGSGGGGSGGGGSEVQLVQSGAEVKKPGASVKVSCKASGYTFTGYHMHWVRQAPGQRLEWMGRINPYNGAASHNQKFKDRVTITRDTSASTAYMELSSLRSEDTAVYYCARGWDYDGGYYAMDYWGQGTLVTVSSTTTPAPRPPTPAPTIASQPLSLRPEACRPAAGGAVHTRGLDFACDIYIWAPLAGTCGVLLLSLVITLYCKRGRKKLLYIFKQPFMRPVQTTQEEDGCSCRFPEEEEGGCELRVKFSRSADAPAYQQGQNQLYNELNLGRREEYDVLDKRRGRDPEMGGKPRRKNPQEGLYNELQKDKMAEAYSEIGMKGERRRGKGHDGLYQGLSTATKDTYDALHMQALPPR | 33.6
